For 36 compounds, cell number change and AC50 results are on record in PubChem BioAssay AID2685 (National Center for Advancing Translational Sciences (NCATS), 2010).

This is one part of the list. Shown are side measurements of this screen, not its main read-out; they come without a call. Most of these compounds were active or inconclusive in the main read-out, so they are no random draw. Potencies come from curve fits of mixed quality, noted in brackets.

This assay can be described thus: qHTS Assay for Lipid Storage Modulators in Drosophila S3 Cells.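 For cell number change: cells counted by Cell Tracker Red CMTPX staining in the red channel.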 The following applies: BODIPY lipid droplet fluorescence, 18-24 h; for cell number change: measured here: cell count max response, cells fed with added oleic acid. The essentials: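 Drosophila S3 cells got compounds at several concentrations plus oleic acid (400 uM solution). Laser-scanning cytometry with 488 nm excitation read lipid droplets at 500-530 nm and cells at 575-640 nm. Percent activity was relative to 20 uM Triacsin C.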
Background: qHTS replaces the single test concentration by a dilution series.

Setting [1] is: measured here: cell number channel AC50, cells fed with added oleic acid.
Setting [2] is: measured here: lipid fluorescence (Fed channel) AC50, cells fed with added oleic acid.

Broadly, the AC50 is the midpoint of the concentration-response curve, whichever way the signal moves. A low value points to activity at low concentration. Take `C=CC[C@@H]1C=C[C@H](O/N=C/c2ccc(C(=O)N3[C@H](c4ccc(C)cc4)[C@@H](C)CC[C@H]3C(=O)OC)cc2)[C@@H](CO)O1`: the cell number change is -33.9%. Under setting [1], the AC50 is 8.2 µM [falling, partial curve]. Besides, the AC50 under setting [2] was 8.2 µM [falling, partial curve].
As to `COc1ccccc1N1CCN(C(=O)CCN2C(=O)c3cccc4cccc(c34)C2=O)CC1`, the cell number change amounted to 2.99%. In addition, the AC50 under setting [2] is 20.6 µM [rising, single point].
With `COC(=O)c1nn(-c2ccc(Cl)cc2)c(=O)cc1Sc1ccccn1`, the cell number change was -19.5%. For the same compound, the AC50 under setting [2] was 29.1 µM [falling, single point].
In the case of `O=c1c(-c2ccc(Br)cc2)coc2c(CN3CCCCC3)c(O)ccc12`, the cell number change was -2.78%. Further, under setting [2], the AC50 is 29.1 µM [falling, single point].
Regarding `O=C(NCC(c1ccco1)N1CCc2ccccc2C1)C(=O)Nc1ccc(F)cc1F` (stereo not drawn), the cell number change was 110%. For the same compound, the half-maximal activity concentration (AC50) under setting [1] was 16.4 µM [rising, partial curve].
As for `Cc1cc(C)n(-c2nc(NCCCO)c3c4c(sc3n2)CCCC4)n1`, the cell number change worked out at 3.29%. Under setting [2], the concentration at half-maximal activity (AC50) is 0.651 µM [rising, single point].
For the compound `Cc1cc(=O)c2c(C)ccc(C)c2[nH]1`, the cell number change came out at 9.23%.
As to `COc1cc(OC)cc(C(=O)NNc2nc3cc4c(cc3s2)OCO4)c1`, the cell number change is 39%. Moreover, the AC50 under setting [1] was 1.84 µM [rising, partial curve]. For the same compound, the half-maximal activity concentration (AC50) under setting [2] was 6.51 µM [rising, partial curve].
On to `CCSc1nc2sc3c(c2c(=O)n1CC)CC(C)(C)OC3`, for which the cell number change was -35.4%. Besides, the AC50 under setting [1] is 32.6 µM [falling, single point].
On to `Cc1ccccc1NC(=O)c1cccc(OCc2c(C)noc2C)c1`, for which the cell number change was found to be 1.22%. Besides, the AC50 under setting [2] was 0.58 µM [rising, full curve].
Turning to `Cc1oc(-c2cccc(Cl)c2)nc1CN1CCC(C(=O)NCCCN2CC(C)CC(C)C2)CC1` (stereo not drawn), the cell number change was 11.3%. Further, the AC50 under setting [2] was 18.4 µM [rising, partial curve].
In the case of `Cc1ccccc1C(=O)c1cccn1CC(=O)O`, the cell number change turned out to be 25.3%. For the same compound, under setting [2], the AC50 is 0.206 µM [falling, full curve].
On to `O=C(NCc1ccc(F)cc1)Nc1cccc(Cl)c1`, for which the cell number change worked out at 26.1%.
Consider `COc1cc(/C=C(\C#N)c2nc3ccc(C)cc3[nH]2)c([N+](=O)[O-])cc1OC`, for which the cell number change was -5.13%.
On to `Cc1ccccc1CN1C(=O)Nc2ccccc2C(=O)N1C(C)(C)C`, for which the cell number change is -5.46%. For the same compound, the half-maximal activity concentration (AC50) under setting [1] was 0.82 µM [falling, single point]. Further, the AC50 under setting [2] is 29.1 µM [rising, single point].
`CCOc1ccc(CN(C(=O)c2oc3cc(C)ccc3c2C)C2CCS(=O)(=O)C2)cc1` (stereo not drawn): the cell number change was determined as 53.3%. Further, the AC50 under setting [1] was 0.731 µM [rising, full curve].
For `CC(=O)Nc1ccc(S(=O)(=O)Nc2ccc3c(c2)CCC3)cc1`, the cell number change was 22.1%.
As to `CCCCC(=O)NC1(C(F)(F)F)NC(=O)N(Cc2ccccc2)C1=O` (stereo not drawn), the cell number change was 0.797%. The AC50 under setting [2] was 0.00461 µM [rising, full curve, poor fit].
On to `CC(=O)CC(=O)NC(=NC1CCCCC1)Nc1nc(C)cc(C)n1`, for which the AC50 under setting [2] is 1.64 µM [rising, partial curve].
`CCCN1C(=O)C(Cc2nc3ccccc3c(=O)n2-c2ccccc2)c2ccccc21` (stereo not drawn): the cell number change is 24.1%. Further, the concentration at half-maximal activity (AC50) under setting [1] is 4.11 µM [rising, full curve, poor fit]. Besides, the AC50 under setting [2] is 1.16 µM [falling, full curve, poor fit].
Regarding `CC(C)Cc1nnc(NC(=O)CCC(=O)N2CCN(c3ccccc3F)CC2)s1`, the cell number change stood at 12.5%. In addition, under setting [2], the concentration at half-maximal activity (AC50) was 6.51 µM [rising, single point].
For `Cc1ccc(C(=O)Nc2ncc([N+](=O)[O-])s2)cc1`, under setting [2], the AC50 was 18.4 µM [falling, partial curve].
For `Nc1c(Cl)ncnc1NCc1cccnc1`, the AC50 is, setting by setting: under setting [1], 0.259 µM [rising, full curve, poor fit]; under setting [2], 29.1 µM [rising, single point].
Take `COc1ccc(C)cc1NC(=O)c1ccc2c(O)c(S(=O)(=O)c3ccccc3)c(=O)[nH]c2c1`: the cell number change came out at 10.2%.
For `CSCCC(NS(=O)(=O)c1ccccc1F)C(=O)NCc1cccs1` (stereo not drawn), the cell number change was 16.3%. Under setting [2], the AC50 is 0.651 µM [falling, single point].
With `CN(C(=O)CSC1=NCCS1)c1ccccc1`, the cell number change worked out at 8.06%. The AC50 under setting [2] was 6.51 µM [falling, single point].
As to `NS(=O)(=O)c1ccc(NC(=S)N2CCN(c3ccccc3Cl)CC2)cc1`, the cell number change came out at 43.1%. Further, the AC50 under setting [1] is 3.26 µM [rising, partial curve, poor fit]. In addition, under setting [2], the AC50 is 0.058 µM [rising, full curve, poor fit].
Consider `COC(=O)/C(=C(O)\C=C\c1ccccc1[N+](=O)[O-])c1nc2ccccc2[nH]1`, for which the cell number change is -16.2%. Also, the concentration at half-maximal activity (AC50) under setting [2] is 6.51 µM [rising, single point].
On to `CCC(C)NC(=O)CCCCCn1c(=O)[nH]c2cc(OC)c(OC)cc2c1=O` (stereo not drawn), for which the cell number change turned out to be 7.11%. The concentration at half-maximal activity (AC50) under setting [2] was 0.092 µM [falling, full curve, poor fit].
Regarding `Cc1ccc(C)c(N(C)S(=O)(=O)c2cccc3nsnc23)c1`, the cell number change was 30.9%. In addition, under setting [1], the AC50 was 25.9 µM [rising, single point]. Moreover, the concentration at half-maximal activity (AC50) under setting [2] was 0.00411 µM [rising, full curve, poor fit].
In the case of `CCCCOc1ccc(C(CC(=O)NC)C(=O)O)cc1` (stereo not drawn), the cell number change was -27.8%. The AC50 under setting [1] is 4.11 µM [falling, full curve, poor fit]. Also, the half-maximal activity concentration (AC50) under setting [2] is 29.1 µM [falling, single point].
In the case of `COc1cccc(OCC(Cn2c(C)nc3ccccc32)OC(C)=O)c1` (stereo not drawn), the cell number change was -2.39%.
For the compound `C/C(=N\NC(=O)c1ccc(N(C)C)cc1)c1ccc(C)cc1C`, the cell number change stood at 15.6%. Moreover, under setting [1], the concentration at half-maximal activity (AC50) is 0.259 µM [rising, partial curve, poor fit]. Besides, under setting [2], the concentration at half-maximal activity (AC50) is 7.31 µM [rising, partial curve].
Regarding `Cc1ccc(/C(N)=N/OC(=O)CCC2CCCCC2)cc1`, the cell number change was -7.53%. The half-maximal activity concentration (AC50) under setting [1] is 2.06 µM [rising, single point].
On to `Cc1ccc(S(=O)(=O)Cc2ccc(C(=O)N3CCN(c4ccc(F)cc4)CC3)o2)cc1`, for which the AC50 was 0.58 µM [rising, single point] under setting [1] and 1.64 µM [rising, single point] under setting [2].
As to `COC(=O)c1ccc(COc2ccccc2/C=C(\C#N)C(=O)Nc2ccc(C)cc2)cc1`, the cell number change is -33.9%. Further, the concentration at half-maximal activity (AC50) under setting [1] is 29.1 µM [falling, single point]. The concentration at half-maximal activity (AC50) under setting [2] is 1.84 µM [falling, full curve, poor fit].
